From patent US6660837B1, “Modified protein derived from protein kinase N” (Kirin Beer Kabushiki Kaisha, priority 1995, dated 2003)
Not every detail of the peptide structures is certain; ends, links or a residue may be inferred. Ends that are not written are not given here.

Chains of the proteins cited; added tags and fusions are not shown. Lines headed by an entry give the natural chain unless they say otherwise; changes in a name come on top.
UniProt Q63433: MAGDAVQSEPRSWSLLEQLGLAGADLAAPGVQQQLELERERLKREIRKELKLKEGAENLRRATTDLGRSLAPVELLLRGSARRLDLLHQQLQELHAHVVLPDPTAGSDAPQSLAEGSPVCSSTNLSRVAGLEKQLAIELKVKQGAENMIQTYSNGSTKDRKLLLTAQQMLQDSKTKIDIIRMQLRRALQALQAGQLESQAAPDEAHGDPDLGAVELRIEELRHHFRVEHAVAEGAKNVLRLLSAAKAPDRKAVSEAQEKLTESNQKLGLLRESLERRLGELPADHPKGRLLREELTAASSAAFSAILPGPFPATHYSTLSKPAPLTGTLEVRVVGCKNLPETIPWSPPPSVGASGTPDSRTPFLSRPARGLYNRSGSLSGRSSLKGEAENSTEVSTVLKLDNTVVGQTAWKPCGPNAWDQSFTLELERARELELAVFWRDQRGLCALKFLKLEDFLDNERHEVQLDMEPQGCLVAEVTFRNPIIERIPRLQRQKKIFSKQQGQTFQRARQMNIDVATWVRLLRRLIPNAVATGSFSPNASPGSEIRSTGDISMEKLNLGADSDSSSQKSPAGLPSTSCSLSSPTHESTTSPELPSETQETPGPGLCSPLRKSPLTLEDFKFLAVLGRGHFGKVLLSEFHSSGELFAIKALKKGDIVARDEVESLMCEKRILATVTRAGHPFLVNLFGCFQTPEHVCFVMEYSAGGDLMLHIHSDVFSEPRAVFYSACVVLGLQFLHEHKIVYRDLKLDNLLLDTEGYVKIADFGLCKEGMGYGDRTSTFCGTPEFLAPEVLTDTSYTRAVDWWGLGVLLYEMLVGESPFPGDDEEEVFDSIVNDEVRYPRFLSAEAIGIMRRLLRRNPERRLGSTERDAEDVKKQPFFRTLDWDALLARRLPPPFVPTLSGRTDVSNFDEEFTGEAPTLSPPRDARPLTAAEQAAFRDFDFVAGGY

Target: T1, purified PKN from rat testis cytosol (Rattus norvegicus, UniProt Q63433)
T1 construct: The purified PKN (1 ng) from rat testis cytosol; from tissue; host or cells: rat testis (cytosol / soluble fraction)
Assay: Phosphorylation of [Ser^46] PKN (39-53) peptide by PKN (kinase assay)
Type: biochemical
Conditions: 40 μM arachidonic acid, 20 μM ATP, 5 min 30° C.

Sequence: RERLRRESRKELKLK [[Ser^46] PKN (39-53)]
- Vmax as substrate for PKN: 400 nmoles/min/mg of protein
